For at least one compound, name, drawing or mass did not settle the structure.
Key:
[1] = test system: PCP-induced disruption of PPI; assay: PCP-induced disruption of pre-pulse inhibition (PPI); conditions: 1 mg/kg i.p.; PCP 8 mg/kg; C57B1/6J mice
[2] = test system: apomorphine-induced climbing; assay: apomorphine-induced climbing test in mice; type: in vivo, CD1 mice; conditions: result in words
Protocol: Anti-apomorphine effects were investigated in the climbing test in mice mediated through the mesolimbic and stereotypy test in rats mediated through the nigrostriatal system. Conventional antipsychotics antagonize both apomorphine-induced behaviours, while known atypical antipsychotics are weaker against apomorphine stereotypy.
The climbing test was carried out according to Protais et al. (Protais, P. et al. Psychopharmacologia, 1976, 50, 1.) Stereotyped behavior was induced in food deprived (for 16 hours) male CD1 mice weighing 20-25 g body by apomorphine HCl (SIGMA) in a s.c. dose of 2 mg/kg. Mice were placed individually into cylinders having 12 cm diameter and consisting of vertical bars of 2 mm diameter where apomorphine treated animals tended to adopt a vertical position in contrary to vehicle treated controls. Test substances were applied ip. 30 min before apomorphine.
10 and 20 min after apomorphine treatment the climbing behaviour was evaluated by scores of 0-2. 10 mice/group were used. The scores of the two readings were summed individually, meaned and compared to the control. The ED50 values were calculated by Litchfield-Wilcoxon's method (Litchfield Jr. J. T., Wilcoxon, F. J. Pharmacol. Exp. Ther. 1949, 96, 49,).

PCP-induced locomotion = assay: PCP induced locomotor activity test (open field); type: in vivo, mice; conditions: 1 mg/kg, PCP 5 mg/kg, vs vehicle
Protocol: The effects of compounds 121 and 183, administered orally, were also evaluated in the PCP induced locomotor activity test. Compound 121 was designated as “Compound A” and Compound 183 was designated as “Compound B” for purposes of this study. In general, the study aimed to test Compounds A and B for potential antipsychotic activity in PCP treated mice.
Compounds A & B were dissolved in 3% Tween: Compound A: 1, 3, 6, 10, and 15 mg/kg; Compound B: 3, 7, 14, 28, and 40 mg/kg; Compounds A+B were administered by gavage.
PCP (5 mg/kg) was dissolved in sterile injectable water.
The open field (“OF”) test assessed both anxiety and locomotor behavior. The open field chambers are Plexiglas square chambers (27.3×27.3×20.3 cm; Med Associates Inc., St Albans, Vt.) surrounded by infrared photobeams (16×16×16) to measure horizontal and vertical activity. The analysis was configured to divide the open field into a center and periphery zone. Distance traveled was measured from horizontal beam breaks as the mouse moved whereas rearing activity was measured from vertical beam breaks.
Mice were brought to the activity experimental room for at least 1 hr acclimation to the experimental room conditions prior to testing. […]
Data was analyzed to show baseline activity (activity during the 30 min prior to PCP injection) and PCP-induced activity (activity during the 60 min after PCP injection).

[3] = test system: DOPA accumulation in eminentia mediana; assay: DOPA accumulation in eminentia mediana after NSD-1015; type: in vivo, Sprague-Dawley rats; conditions: result in words, vs saline
Protocol: Acute administration of atypical antipsychotics results in enhanced accumulation of dihydroxyphenylalanine (DOPA) in the […] after the inhibition of DOPA decarboxylase. In contrast, DOPA accumulation is not altered by the typical antipsychotics (Andersson, G, Albinsson, A, Pettersson, G, Arzneimittelforschung. 1990, 40, 237; Gudelsky, G. A., Meltzer, H. Y. Neuropsychopharmacology, 1989, 2, 45). The effect of the compound of Example 121 on DOPA-accumulation was measured by analyzing the levels of DOPA in […]. […] (EM), were dissected out from the brains on ice-cold plates and kept at -70° C. until they were assayed for DOPA by HPL-EC. Statistical analysis was carried out using one-way ANOVA followed by Duncan test.

CN1CCN(C2=Nc3cc(Cl)ccc3Nc3ccccc32)CC1 [Clozapine, reference compound]
reversal of PCP-induced disruption of PPI [1]: significantly reversed | inhibition of apomorphine-induced climbing [2]: more active in climbing than in the stereotypy assay | effect on PCP induced locomotion (PCP-induced locomotion): significantly decreased | effect on levels of DOPA in the EM of rats [3]: significantly increased

— US20080269202A1, “Novel 2,3-benzodiazepine derivatives and their use as antipsychotic agents” (Teva Pharmaceutical Industries Ltd., priority 2007, published 2008)
